# Assay results from patent publication US20220226321A1, “INHIBITOR OF MNK FOR THE TREATMENT OF NEUROPATHIC PAIN” (Board of Regents, The University of Texas System, priority 2019, published 2022).
# At least one structure is not confirmed: it was looked up by name or label, or the drawing left a doubt.
# Test system: paclitaxel-treated mice
# Assay: conditioned place preference (CPP) with retigabine in CIPN
# Format: in vivo, mouse
# Details: 10 mg/kg
smiles,measurement,setting,value
CCOC(=O)Nc1ccc(NCc2ccc(F)cc2)cc1N [retigabine],preference for the retigabine-paired chamber,WT paclitaxel-treated mice,clear preference
same,preference for the retigabine-paired chamber,eIF4E^S209A paclitaxel-treated mice,no preference
